PubChem BioAssay AID504444 (National Center for Advancing Translational Sciences (NCATS), 2011)
Among all 360,000 compounds or so, about 7,500 (2.1%) were called active. The shares of active, inactive and inconclusive entries below differ from those in the screen. Calls follow the shape of the dose curve; as a rule, active = well fitted inhibition curve with a large enough effect; inconclusive = small, poorly fitted or top-dose-only effect, or effect the other way; inactive = flat fitted curve, though single readings scatter. Potencies beside an inconclusive call are fits to weak or partial responses and may not hold up.

assay: Nrf2 qHTS screen for inhibitors; conditions: A549 ARE-Fluc reporter, luciferase luminescence, 18-24 h; activity change, negative = inhibition: at 46 µM (top of the series); also: nearly all actives have a fitted effect of over 60% in size
In short: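 Two sequential reads on A549 ARE_Fluc cells exposed to compound for 18-24 h: a CellTiter-Fluor fluorescence read for viability, then a luciferase luminescence read for Nrf2/ARE activity.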
% is scaled to controls: 0 for no effect and ±100 for the full control effect; potency is read from the fitted curve at half-maximal effect.

Which Potency does the source give for `O=C(Nc1ccc(S(=O)(=O)N2CCCC2)cc1)N1c2ccccc2Sc2ccccc21` here?
The Potency was inconclusive: 5.17 µM [falling, full curve, poor fit].

For `COc1ccc(CN(C)C(=O)c2[nH]c(C)c(C(C)=O)c2C)cc1F`, which Potency is on record?
The Potency was inconclusive: 16.4 µM [falling, single point].

Which Potency does the source give for `COc1ccc(CN2C(=O)c3ccccc3C2C(=O)NC2CCCCCC2)c(OC)c1` (stereo not drawn) here?
Its Potency is inconclusive: 0.103 µM [falling, partial curve, poor fit].

For `O=C(Cn1ncc2c3ccccc3n(Cc3cccc(Cl)c3)c2c1=O)N1CCCCC1`, which Potency is on record?
Its Potency is inconclusive: 29.1 µM [falling, single point].

Which Potency does the source give for `COc1ccccc1/C=N/Nc1cc(C)nc2ccc(C)cc12` here?
The Potency was inconclusive: 29.1 µM [activator, single point].

For `CCOC(=O)c1c(C)nc2c(c1-c1ccccc1)C(=O)CC(C)(C)C2`, which Potency is on record?
The Potency was inconclusive: 29.1 µM [falling, single point].

Which Potency does the source give for `N#Cc1cnc2sc3ccccc3n2c1=N` here?
Its Potency is inconclusive: 8.2 µM [activator, partial curve].

With `O=C(C=Cc1cccnc1)c1ccccc1` as the compound, how does the “activity change, negative = inhibition” value read?
Its value is inactive: -20.5%.

Which Potency does the source give for `COC(=O)c1ccc(CSc2nc3c(c(=O)n2-c2ccccc2)SCC3)o1` here?
The Potency was inconclusive: 29.1 µM [falling, single point].

Which Potency does the source give for `CCCN1C(C(=O)c2ccccc2)=C(OC(=O)C(C)(C)C)c2ccccc2S1(=O)=O` here?
The Potency was inconclusive: 29.1 µM [falling, single point].

Which Potency does the source give for `Cc1ccc(S(=O)(=O)N(C)c2ccc(C(=O)N3CCN(Cc4ccc5c(c4)OCO5)CC3)cc2)cc1` here?
The Potency was inconclusive: 18.4 µM [falling, partial curve, poor fit].

For `Cc1ccc2c(c1)sc1nc(=O)n(-c3cccc(Cl)c3)c(=O)n12`, which Potency is on record?
The Potency was inconclusive: 7.31 µM [activator, partial curve].

With `COc1ccc(-c2noc(C3CCCN(C(=O)Nc4ccccc4F)C3)n2)cc1` (stereo not drawn) as the compound, how does the Potency read?
The Potency was inconclusive: 18.4 µM [falling, single point].

Which “activity change, negative = inhibition” value does the source give for `Cc1c(/C=N/NC(=O)c2cc(=O)[nH]c(=O)[nH]2)c2ccccn2c1C(=O)c1ccccc1` here?
The value was inactive: -19.5%.

For `CCOC(=O)/C=C1\NC(=O)C(C)S1` (stereo not drawn), which “activity change, negative = inhibition” value is on record?
Its value is inactive: 0.452%.

Which Potency does the source give for `Cc1[nH]n(-c2ccccc2)c(=O)c1N=Nc1cccc(C(=O)O)c1` here?
The Potency was inconclusive: 1.46 µM [activator, full curve, poor fit].

With `CCN(CC)S(=O)(=O)c1cccc(C(=O)OCC(=O)C23CC4CC(CC(C4)C2)C3)c1` as the compound, how does the Potency read?
The Potency was inconclusive: 13 µM [falling, partial curve, poor fit].

For `O=C(NC1(O)C(=O)c2ccccc2C1=O)c1ccccc1`, which Potency is on record?
The Potency was inconclusive: 9.2 µM [falling, partial curve, poor fit].

With `O=C(CCc1nnc(Cc2cccc(C(F)(F)F)c2)o1)NCCc1ccccc1F` as the compound, how does the Potency read?
The Potency was inconclusive: 10.3 µM [activator, partial curve].

Which Potency does the source give for `CCOc1ccc(CNC(=O)c2cnc(SC)nc2C)cc1` here?
Its Potency is inconclusive: 13 µM [falling, partial curve].

With `COC(=O)c1c(-c2cccs2)csc1NC(=O)COc1ccc(C(C)C)cc1` as the compound, how does the “activity change, negative = inhibition” value read?
Its value is inactive: -16%.

For `CCc1ccc(NC(=O)CCc2nc3cccnc3n2Cc2ccc(OC)cc2)cc1`, which Potency is on record?
The Potency was inconclusive: 29.1 µM [falling, single point].

Which “activity change, negative = inhibition” value does the source give for `Cc1cc(C(=O)CSc2nnc(-c3cccs3)n2Cc2ccccc2)c(C)n1C` here?
The value was inactive: 6.18%.

For `Cn1c(=O)c2ncn(CC(=O)Nc3cccc(-c4nc5ccccc5s4)c3)c2n(C)c1=O`, which Potency is on record?
Its Potency is inconclusive: 25.9 µM [activator, single point].

Which Potency does the source give for `COc1cc(NC(=O)c2sc3nc(C)nc(N4CCOCC4)c3c2C)cc(OC)c1OC` here?
The Potency was inconclusive: 11.6 µM [falling, partial curve].

With `CN(C)c1ccc(CNn2cnnc2SCc2ccccc2F)cc1` as the compound, how does the Potency read?
Its Potency is inconclusive: 5.8 µM [activator, full curve].

Which Potency does the source give for `COc1ccc(N2CCN(C(=O)c3ccc(N(C)S(=O)(=O)c4ccc(C)cc4)cc3)CC2)cc1` here?
The Potency was active: 18.4 µM.

Which “activity change, negative = inhibition” value does the source give for `COC(=O)Nc1ccc(S(=O)(=O)NC2CCS(=O)(=O)C2)cc1` (stereo not drawn) here?
Its value is inactive: -4.79%.

Which Potency does the source give for `CN(/N=C/c1ccccc1Cl)c1ncc(Cl)cc1C(F)(F)F` here?
The Potency was inconclusive: 9.2 µM [activator, partial curve].

Which Potency does the source give for `C[C@]12c3[nH]c4cc(-c5ccco5)ccc4c3CCN1C(=O)[C@@H](CC(=O)NCCN1CCOCC1)C[C@@H]2C(=O)N1CCCCC1` here?
The Potency was inconclusive: 11.6 µM [falling, partial curve, poor fit].

Which “activity change, negative = inhibition” value does the source give for `Cn1c2ccccc2c2nnc(SCCN3CCOCC3)nc21` here?
Its value is inactive: 2.85%.

For `Cc1ccccc1OCC(=O)N/N=C/c1cn(Cc2ccccc2)c2ccccc12`, which “activity change, negative = inhibition” value is on record?
The value was inactive: -7.52%.

For `c1ccc(Cc2ccc(OCCn3cncn3)cc2)cc1`, which “activity change, negative = inhibition” value is on record?
Its value is inactive: -12.9%.

With `CCOC(=O)Sc1nc2ncncc2[nH]1` as the compound, how does the “activity change, negative = inhibition” value read?
Its value is inactive: 15.7%.

With `Cc1noc(C)c1S(=O)(=O)Nc1ccc(C(=O)N2CCN(c3cccc(Cl)c3)CC2)cc1` as the compound, how does the Potency read?
Its Potency is inconclusive: 29.1 µM [falling, single point].

For `COc1ccc(CN(Cc2ccccc2)C(C)=O)cc1COc1ccc(NC(C)=O)cc1`, which “activity change, negative = inhibition” value is on record?
The value was inactive: -24.4%.

With `CCN(CC)C(=O)CSC(Nc1ccc(F)cc1)=C(C#N)C#N` as the compound, how does the “activity change, negative = inhibition” value read?
The value was inactive: 3.99%.

Which Potency does the source give for `Cc1cccc(CCNC(=O)c2nc(-c3ccc(Cl)cc3)n3c2CCCCC3)c1` here?
The Potency was inconclusive: 18.4 µM [falling, partial curve, poor fit].

With `CCNc1nc(N2CCCCC2)nc(-n2nnc(C(=O)OCC)c2C)n1` as the compound, how does the Potency read?
The Potency was inconclusive: 16.4 µM [falling, partial curve, poor fit].

Which “activity change, negative = inhibition” value does the source give for `COc1ccc(S(=O)(=O)Nc2ccc3c(c2)C(=O)N([C@@H](C)CO)C[C@H](C)[C@H](CN(C)S(=O)(=O)c2ccc(F)cc2)O3)cc1` here?
The value was inactive: -19.4%.

For `O=C(CSc1ccc(-c2ccccc2)nn1)N1CCCc2ccccc21`, which Potency is on record?
The Potency was inconclusive: 25.9 µM [falling, single point].

For `Cc1ccc(/C=N/NC(=O)c2nn(C)cc2Cl)cc1`, which Potency is on record?
The Potency was inconclusive: 0.82 µM [activator, full curve, poor fit].

Which Potency does the source give for `CC(=O)c1ccc(NC(=O)COc2ccccc2-c2nc(C)no2)cc1` here?
The Potency was inconclusive: 14.6 µM [falling, single point].
